Tested on: differentiated SH-SY5Y cells
Assay: MTT cytotoxicity assay on differentiated SH-SY5Y cells
Format: cell-based, human
Details: cytotoxicity dose–response curve, 24 h
Procedure: The SH–SY5Y cell line (DSMZ code: ACC 209) was supplied by the German Collection of Microorganisms and the Cell Culture GmbH (DSMZ) biobank and was cultured according to the supplier’s information. Cells were grown in DMEM:F12 (Dulbecco’s Modified Eagle’s Medium/F12), supplemented with 10% fetal bovine serum (FBS) and 1% antibiotic–antimycotic in a humidified atmosphere with 5% CO2 at 37 °C. Subculture was performed according to biobank instructions when the cultures reached 80–85% of confluence.
SH-SY5Y cells were trypsinized (trypsin/EDTA; 0.25%) and the cell suspension was seeded in 96-well plates at a density of 2 × 10^4 cells/well and incubated until reaching 80-85% confluence. Cells were differentiated to obtain a dopaminergic neuronal phenotype according to Ferreira et al. with slight modifications (Figure 10). To ensure reproducibility and optimal neuronal differentiation, cells were used between passages (15–25). Briefly, cells were seeded in complete DMEM:F12 medium containing 10 µM retinoic acid (RA) and 2.5% fetal bovine serum (FBS) and maintained for 4 days, with the medium changed on day 2. After this time, the medium was replaced by DMEM:F12 supplemented with 10 µM RA, 80 nM 12-O-tetradecanoylphorbol-13-acetate (TPA), and 2.5% FBS, and the cells were maintained for an additional 4 days (with the medium changed at day 6). The cytotoxicity assay was performed on day 8.
The SH-SY5Y cells’ viability was evaluated after exposure for 24 h to […]. The 3-(4,5-dimethylthiazol-2-yl) − 2,5-diphenyltetrazolium bromide (MTT) colorimetric assay was performed following the methodology described by Joana Silva et al.. The experimental dose–response results were fitted to the Hill’s sigmoidal non-linear regression model. For each cathinone, the LC50 values (cathinone concentration showing 50% lethality) and their confidence interval at the 95% confidence level ([CI]) were determined. The Hill slope, also known as the Hill coefficient, which describes the steepness of a dose–response curve, and the minimum observable adverse effect concentration (LOAEL) were also determined for all cathinones.

Compound | Hillslope
CC(C)NC(C)C(=O)c1cccc(Cl)c1 (racemic) [3-CIC (17), (R,S)-1-(3-chlorophenyl)-2-(isopropylamino)propan-1-one] | 4.4
CNC(C)C(=O)c1ccc(Cl)cc1 (racemic) [4-CMC (3), (R,S)-1-(4-chlorophenyl)-2-(methylamino)propan-1-one] | 1.6
CC(NC(C)(C)C)C(=O)c1ccc(Cl)cc1 (racemic) [4-Cl-TBC (20), (R,S)-2-(tert-butylamino)-1-(4-chlorophenyl)propan-1-one] | 2.4
CNC(C)C(=O)c1cccc(Cl)c1 (racemic) [3-CMC (2), (R,S)-1-(3-chlorophenyl)-2-(methylamino)propan-1-one] | 2.5
CCNC(C)C(=O)c1cccc(Cl)c1 (racemic) [3-CEC (5), (R,S)-1-(3-chlorophenyl)-2-(ethylamino)propan-1-one] | 1.7
CCCCNC(C)C(=O)c1ccc(Cl)cc1 (racemic) [4-CBC (8), (R,S)-2-(butylamino)-1-(4-chlorophenyl)propan-1-one] | 10.5
CNC(C)C(=O)c1ccccc1Cl (racemic) [2-CMC (1), (R,S)-1-(2-chlorophenyl)-2-(methylamino)propan-1-one] | 4.3
CC(C(=O)c1ccccc1Cl)N1CCCC1 (racemic) [2-Cl-PPP (9), (R,S)-1-(2-chlorophenyl)-2-(pyrrolidine-1-yl)propan-1-one] | 2.4
CNC(C)C(=O)c1ccc(C)cc1 (stereo not drawn) [Mephedrone (M), Mephedrone, reference compound] | 2.3
CC(C(=O)c1ccc(Cl)cc1)N1CCCC1 (racemic) [4-Cl-PPP (11), (R,S)-1-(4-chlorophenyl)-2-(pyrrolidine-1-yl)propan-1-one] | 0.9
CC(C(=O)c1cccc(Cl)c1)N(C)C (racemic) [3-CDC (13), (R,S)-1-(3-chlorophenyl)-2-(dimethylamino)propan-1-one] | 6.3
CC(C(=O)c1ccc(Cl)cc1)N(C)C (racemic) [4-CDC (14), (R,S)-1-(4-chlorophenyl)-2-(dimethylamino)propan-1-one] | 5.6
CCN(CC)C(C)C(=O)c1cccc(Cl)c1 (racemic) [3-Cl-DEC (15), (R,S)-1-(3-chlorophenyl)-2-(diethylamino)propan-1-one] | 4.3
CC(NC(C)(C)C)C(=O)c1cccc(Cl)c1 (racemic) [3-Cl-TBC (19), (R,S)-2-(tert-butylamino)-1-(3-chlorophenyl)propan-1-one] | 3.5
CCNC(C)C(=O)c1ccccc1Cl (racemic) [2-CEC (4), (R,S)-1-(2-chlorophenyl)-2-(ethylamino)propan-1-one] | 4.4
CCN(CC)C(C)C(=O)c1ccc(Cl)cc1 (racemic) [4-Cl-DEC (16), (R,S)-1-(4-chlorophenyl)-2-(diethylamino)propan-1-one] | 17.4
CC(C(=O)c1cccc(Cl)c1)N1CCCC1 (racemic) [3-Cl-PPP (10), (R,S)-1-(3-chlorophenyl)-2-(pyrrolidine-1-yl)propan-1-one] | 1.7
CC(C)NC(C)C(=O)c1ccc(Cl)cc1 (racemic) [4-CIC (18), (R,S)-1-(4-chlorophenyl)-2-(isopropylamino)propan-1-one] | 4.5
CCNC(C)C(=O)c1ccc(Cl)cc1 (racemic) [4-CEC (6), (R,S)-1-(4-chlorophenyl)-2-(ethylamino)propan-1-one] | 3.4
CCCCNC(C)C(=O)c1cccc(Cl)c1 (racemic) [3-CBC (7), (R,S)-2-(butylamino)-1-(3-chlorophenyl)propan-1-one] | 1.4
CC(C(=O)c1ccccc1Cl)N(C)C (racemic) [2-CDC (12), (R,S)-1-(2-chlorophenyl)-2-(dimethylamino)propan-1-one] | 12.4

— article PMC12027149 (International Journal of Molecular Sciences, 2025)
